# These are yes or no findings as the source states them, for the method shown. Some results given as binding are weak or reduced against the parent protein; the word gives no strength.
# Chains of the proteins cited; added tags and fusions are not shown. Lines headed by an entry give the natural chain unless they say otherwise; changes in a name come on top.
# UniProt P09382: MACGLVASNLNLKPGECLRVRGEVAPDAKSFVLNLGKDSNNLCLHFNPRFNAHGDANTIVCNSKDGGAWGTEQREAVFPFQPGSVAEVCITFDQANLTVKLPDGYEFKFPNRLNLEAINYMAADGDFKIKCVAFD
# B1: 8B5 anti-Gal1 monoclonal antibody (antibody, V domains shown)
# VH: EVQLQQSVAEFVRPGASVRLSCTASGFNIKNTYIHWVRQRPEQGLEWIGKIDPANGNTKYVPEFQGKATMTADTSSNTVYLHLSSLTSEDTAIYYCVDGYYGWYFAVWGTGTTVTVSS
# VL: QAVVTQESALTTSPGETVTLTCRSSTGAVTTSNYANWVQEKPDHLFTGLIGATNNRAPGVPARFSGSLIGDKAVLTITGAQTEDEAIYFCALWYRNHFIFGSGTKVTVL
# B2: 8F4 anti-Gal1 monoclonal antibody (antibody, V domains shown)
# VH: B1 VH
# VL: B1 VL
# notes: Hybridoma monoclonal antibody; The light chain is lambda; Hybridoma 8F4.F8.G7 is deposited as ATCC PTA-10535; also called 8F4 mAb; 8F4.F8.G7
# B3: 8G3 anti-Gal1 monoclonal antibody (antibody, V domains shown)
# VH: B1 VH
# VL: B1 VL
# Tests used:
# [1] = target: GST-F7 (GST-tagged human Gal1 construct) (human) (UniProt P09382); assay: epitope mapping with GST-tagged human Gal1 fragments
# [2] = target: HIS-F7 (6x HIS-tagged human Gal1 construct) (human) (UniProt P09382); assay: Western blot on HIS-tagged human Gal1 constructs
Binder,binding [1],binding [2]
B1,binds,–
B2,binds,binds
B3,binds,–

# Source: patent US20190127473A1 (Dana-Farber, published 2019)
